Test results published in PubChem BioAssay AID2551 (National Center for Advancing Translational Sciences (NCATS), 2010).
Several values for one entry are separate records, joined by “and”; a condition that tells them apart may be missing. Equal values may be shown once. About 17,000 (5.5%) of roughly 310,000 compounds were called active. The shares of active, inactive and inconclusive entries below differ from those in the screen. The call rests on the fitted dose curve; in most records, active means well fitted inhibition curve with a large enough effect; inconclusive means small, poorly fitted or top-dose-only effect, or effect the other way; inactive means no such curve, though single readings can be large or run the other way. Potencies beside an inconclusive call are fits to weak or partial responses and may not hold up.

Chains of the proteins cited; added tags and fusions are not shown. Lines headed by an entry give the natural chain unless they say otherwise; changes in a name come on top.
UniProt P51450: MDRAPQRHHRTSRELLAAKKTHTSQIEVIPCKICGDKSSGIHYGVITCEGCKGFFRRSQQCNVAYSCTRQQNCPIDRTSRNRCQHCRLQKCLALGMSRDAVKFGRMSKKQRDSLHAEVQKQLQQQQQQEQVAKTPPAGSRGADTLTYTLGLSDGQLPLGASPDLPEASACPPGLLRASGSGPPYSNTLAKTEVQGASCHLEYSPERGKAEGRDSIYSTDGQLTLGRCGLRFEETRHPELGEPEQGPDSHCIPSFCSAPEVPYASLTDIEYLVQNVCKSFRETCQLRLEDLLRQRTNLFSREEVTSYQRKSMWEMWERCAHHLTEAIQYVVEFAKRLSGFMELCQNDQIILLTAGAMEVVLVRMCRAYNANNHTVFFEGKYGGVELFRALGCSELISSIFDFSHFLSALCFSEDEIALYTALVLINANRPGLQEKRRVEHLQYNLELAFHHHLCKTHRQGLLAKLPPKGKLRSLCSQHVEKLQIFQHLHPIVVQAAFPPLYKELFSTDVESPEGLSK

biological target: Nuclear receptor ROR-gamma (Mus musculus) (UniProt P51450); assay: qHTS for inhibitors of ROR gamma transcriptional activity; conditions: Drosophila S2 Gal4-RORgamma UAS-luciferase reporter, 20 h; activity change, negative = inhibition: at 53.6 µM (top of the series); further: nearly all actives have a fitted effect of over 60% in size
How it was run: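 In this cell-based reporter format, copper sulfate (700 uM final) drives Gal4–ROR gamma fusion expression from a metallothionein promoter in Drosophila Schneider cells; compounds preincubated 1 hr, reporter read after 20 hr at ambient temperature.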
On the % scale 0 is the no-effect control and ±100 the full control effect; potency means the concentration at half of the fitted maximal effect.

| SMILES | Potency | activity change, negative = inhibition |
| --- | --- | --- |
| Cc1nc2cc(NS(=O)(=O)c3c(C)c(C)cc(C)c3C)ccc2s1 | inconclusive: 5.01 µM [activator, single point] |  |
| Cc1ccc(-n2c(C)cc(C(=O)Cn3nc(C(=O)O)c4ccccc4c3=O)c2C)cc1 | inconclusive: 12.6 µM [activator, partial curve] |  |
| CC(C)OC(=O)c1sc2nc(-c3ccccc3)ccc2c1N | active: 7.08 µM |  |
| O=C(N[C@@H](c1ccccc1)[C@@H]1C[C@H]1C(=O)NCc1ccccc1)OCc1ccccc1 | inconclusive: 35.5 µM [inhibitor, single point] |  |
| CCOC(=O)c1c(NC(=O)CN2CCCCC2)sc2c1CCC(C=O)=C2Cl |  | inactive: -32.1% |
| CCc1ccc(/C=C/C(=O)c2ccc(S(=O)(=O)N(C)C)cc2)cc1 | inconclusive: 35.5 µM [inhibitor, single point] |  |
| Cc1ccc(NC(=S)N(Cc2cccc(Br)c2)CC2CCC(C(=O)O)CC2)cc1Cl (stereo unspecified) | inconclusive: 11.2 µM [activator, partial curve] |  |
| CC(C)CSc1ncc(-c2cccc(C(F)(F)F)c2)cn1 |  | inactive: 3.27% |
| Cc1cccc(C)c1OCC(=O)N/N=C/c1ccc2c(c1)OCO2 |  | inactive: -25.1% |
| O=C1OCC/C1=C\c1ccc(O)cc1 | inconclusive: 35.5 µM [inhibitor, single point] |  |
| Cc1ccc2c(c1)NC(=O)C(CC(=O)NCCCN1CCN(c3cc(Cl)ccc3C)CC1)O2 (stereo unspecified) | inconclusive: 25.1 µM [inhibitor, partial curve, poor fit] |  |
| CCCn1nc2cc(C(=O)NC3CCc4ccccc43)ccc2c1OCC (stereo unspecified) | inconclusive: 5.62 µM [activator, single point] |  |
| COc1ccc(OCC(=O)N/N=C2\CCc3ccccc32)cc1 | inconclusive: 3.55 µM [activator, partial curve, poor fit] |  |
| C=CCNC(=S)NCCCCC1NC(=S)N(CC=C)C1=O (stereo unspecified) | inconclusive: 12.6 µM [inhibitor, single point] |  |
| COc1cccc(C(=O)COC(=O)c2ccc(NC(C)=O)cc2)c1 | inconclusive: 14.1 µM [activator, single point] |  |
| CC1(C)OC(C)(C)/C(=C/Nc2ccc(O)cc2)C1=O |  | inactive: -11.5% |
| FC(F)(F)c1ccc(-c2nc(=S)[nH][nH]2)cc1 | active: 2.51 µM |  |
| CC(=O)n1nc(-c2ccccc2)nc1NCc1ccc(F)cc1 |  | inactive: 7.79% |
| CC(Nc1nc(N2CCCC2)nc2ccccc12)c1ccccc1 (stereo unspecified) | inconclusive: 35.5 µM [inhibitor, single point] |  |
| CC(C)(C)C(=O)NC(=S)Nc1ccccc1C(=O)NC1CCCCC1 | inconclusive: 22.4 µM [inhibitor, single point] |  |
| COc1cc2c(cc1NC(=O)CN(C)Cc1nc3ccccc3c(=O)[nH]1)oc1ccccc12 | active: 4.47 µM |  |
| CCCCOC(=O)Nc1nc(C)c(C(=O)OCC)s1 | inconclusive: 1 µM [activator, full curve, poor fit] |  |
| Cc1ccc(S(=O)(=O)N(C#N)c2nc(C)cc(C)n2)cc1 | inconclusive: 3.98 µM [activator, single point] |  |

Four entries drawn at random from those above:

| SMILES | Potency | activity change, negative = inhibition |
| --- | --- | --- |
| CC(=O)n1nc(-c2ccccc2)nc1NCc1ccc(F)cc1 |  | inactive: 7.79% |
| CCCCOC(=O)Nc1nc(C)c(C(=O)OCC)s1 | inconclusive: 1 µM [activator, full curve, poor fit] |  |
| Cc1nc2cc(NS(=O)(=O)c3c(C)c(C)cc(C)c3C)ccc2s1 | inconclusive: 5.01 µM [activator, single point] |  |
| CC(Nc1nc(N2CCCC2)nc2ccccc12)c1ccccc1 (stereo unspecified) | inconclusive: 35.5 µM [inhibitor, single point] |  |

More structures.

| SMILES | Potency | activity change, negative = inhibition |
| --- | --- | --- |
| CC(C)NC(=S)NNC(=O)C12CC3CC(CC(C3)C1)C2 |  | inactive: 33.7% |
| CCOC(=O)c1ccc(NC(=O)Nc2ncccc2C)cc1 | inconclusive: 35.5 µM [activator, single point] |  |
| Cc1ccc(C)c(NC(=O)C2CC3c4ccccc4C2c2ccccc23)c1 (stereo unspecified) | inconclusive: 4.47 µM [inhibitor, partial curve, poor fit] |  |
| Cc1onc(-c2ccccc2)c1C(=O)Nc1nc(-c2ccccc2)cs1 | inconclusive: 17.8 µM [activator, partial curve, poor fit] |  |
| C/C(=N\Nc1ccc([N+](=O)[O-])cc1)c1cccc(N)c1 | inconclusive: 11.2 µM [activator, partial curve] |  |
| CCOC(=O)c1c(NC(=O)c2ccc(Br)o2)sc2c1CCCC2 |  | inactive: -18.3% |
| COc1ccc(C(=O)/C=C/c2ccc(OC)c(CN3CCOCC3)c2)cc1 | inconclusive: 12.6 µM [activator, single point] |  |
| O=S1(=O)Nc2c(ccc3cccnc23)-c2ccccc21 | active: 1.58 µM and active: 1.26 µM |  |
| COc1ccc(CNC[C@@H](CCCCN(C)Cc2ccc(OC)cc2)N2C[C@H](c3ccccc3)N(CCc3ccc(Cl)c(Cl)c3)C(=O)C2=O)cc1 | active: 5.62 µM |  |
| CC1CC(C)(C)NC(=S)N1CC(=O)N(C)Cc1ccccc1 (stereo unspecified) | active: 17.8 µM |  |
| C=CCn1c(=S)[nH]c2scc(-c3ccc(C)o3)c2c1=O | active: 0.282 µM |  |
| Cc1ccc(C)c(C(C)NC(=O)C2CCCO2)c1 (stereo unspecified) |  | inactive: -25% |
| O=C(COC(=O)c1ccccc1O)Nc1ccc(OC(F)F)cc1 | inconclusive: 10 µM [activator, partial curve, poor fit] |  |
| Cc1ccc(S(=O)(=O)Nc2ccc3c(c2)CCC3)cc1 |  | inactive: 2.17% |
| CC1=CC(C)C(C(=O)O)C(C(=O)O)C1 (stereo unspecified) | inconclusive: 10 µM [inhibitor, partial curve] |  |
| CSc1ccccc1NC(=O)CN(C)CC(=O)Nc1cccc(Br)c1 | inconclusive: 11.2 µM [inhibitor, single point] |  |
| COc1ccc(OCc2cc(C(=O)N3CCCCCC3)no2)c(Cl)c1 | inconclusive: 7.08 µM [activator, partial curve] |  |
| C[C@@H]1C=CC(=O)O[C@@H]1c1ccc(Cl)cc1 | inconclusive: 1 µM [activator, full curve, poor fit] |  |
| COc1ccc(C=C(c2nc3ccccc3s2)c2nc3ccccc3s2)cc1O |  | inactive: 18.6% |
| CC(C)Cn1nc(NS(=O)(=O)c2cccc3nonc23)c2cc3ccccc3nc21 | inconclusive: 12.6 µM [activator, partial curve] |  |
| COc1ccc(N2CCCn3c2nc2c3c(=O)n(Cc3ccc(F)cc3)c(=O)n2C)c(OC)c1 |  | inactive: 29.7% |
| COC(=O)c1ccc2nc(Nc3nc4ccc(F)cc4s3)sc2c1 | active: 0.141 µM |  |
| COc1ccc(C2c3[nH]c4ccccc4c3CCN2Cc2cccn2-c2ncccn2)cc1C (stereo unspecified) | inconclusive: 3.55 µM [activator, partial curve] |  |
